For one molecule, binding results are on record in patent US20200339692A1.

Amino acid sequences for entries named in this document (tags omitted). A change or cut given only in a name is not applied to a line headed by its entry. Residues count along the entry.
UniProt Q9NZQ7, residues 19-239: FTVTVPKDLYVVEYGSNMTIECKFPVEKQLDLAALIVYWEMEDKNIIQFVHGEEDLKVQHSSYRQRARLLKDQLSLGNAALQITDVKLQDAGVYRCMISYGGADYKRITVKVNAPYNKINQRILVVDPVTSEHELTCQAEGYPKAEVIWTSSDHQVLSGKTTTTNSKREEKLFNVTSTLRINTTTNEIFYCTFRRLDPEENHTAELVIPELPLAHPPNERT

The target in this experiment is human PD-L1 (Cat. #10084-H08H, Sino Biological) (human) (UniProt Q9NZQ7). The experiment is described as follows: SPR, Biacore X100. On the technique in general: In SPR one partner is held on a chip, and binding of the other changes the refractive index at the surface.

These are yes or no findings as the source states them, for the method shown. Some binding calls cover weakened binding; strength is not graded here.

B1: H14L61 (antibody, human IgG1, kappa, V domains shown)
VH: QVQLVQSGAEVKKPGASVKVSCKASGYTFTSYWMHWVRQAPGQGLEWMGRIHPSLGLPLYNEKFKNRVTMTRDTSTSTVYMELSSLRSEDTAVYYCARGGSSYDYFDYWGQGTTVTVSS
VL: DIVLTQSPASLAVSPGQRATITCRASESVSIHGTHLMHWYQQKPGQPPKLLIYAASNLESGVPARFSGSGSGTDFTLTINPVEAEDTANYYCQQSFEDPLTFGQGTKLEIKR
In the case of B1, the binding result is “binds”.
